Laboratory results published in paper PMC12048663.
These are yes or no findings as the source states them, for the method shown. Binding seen in cells or lysates may run through a third protein. These calls come from enrichment with a bait or labelling near it, and not all partners need be listed.

Protein sequences, listed by entry. Tags and fused reporters are not part of them.
UniProt Q2TAZ0: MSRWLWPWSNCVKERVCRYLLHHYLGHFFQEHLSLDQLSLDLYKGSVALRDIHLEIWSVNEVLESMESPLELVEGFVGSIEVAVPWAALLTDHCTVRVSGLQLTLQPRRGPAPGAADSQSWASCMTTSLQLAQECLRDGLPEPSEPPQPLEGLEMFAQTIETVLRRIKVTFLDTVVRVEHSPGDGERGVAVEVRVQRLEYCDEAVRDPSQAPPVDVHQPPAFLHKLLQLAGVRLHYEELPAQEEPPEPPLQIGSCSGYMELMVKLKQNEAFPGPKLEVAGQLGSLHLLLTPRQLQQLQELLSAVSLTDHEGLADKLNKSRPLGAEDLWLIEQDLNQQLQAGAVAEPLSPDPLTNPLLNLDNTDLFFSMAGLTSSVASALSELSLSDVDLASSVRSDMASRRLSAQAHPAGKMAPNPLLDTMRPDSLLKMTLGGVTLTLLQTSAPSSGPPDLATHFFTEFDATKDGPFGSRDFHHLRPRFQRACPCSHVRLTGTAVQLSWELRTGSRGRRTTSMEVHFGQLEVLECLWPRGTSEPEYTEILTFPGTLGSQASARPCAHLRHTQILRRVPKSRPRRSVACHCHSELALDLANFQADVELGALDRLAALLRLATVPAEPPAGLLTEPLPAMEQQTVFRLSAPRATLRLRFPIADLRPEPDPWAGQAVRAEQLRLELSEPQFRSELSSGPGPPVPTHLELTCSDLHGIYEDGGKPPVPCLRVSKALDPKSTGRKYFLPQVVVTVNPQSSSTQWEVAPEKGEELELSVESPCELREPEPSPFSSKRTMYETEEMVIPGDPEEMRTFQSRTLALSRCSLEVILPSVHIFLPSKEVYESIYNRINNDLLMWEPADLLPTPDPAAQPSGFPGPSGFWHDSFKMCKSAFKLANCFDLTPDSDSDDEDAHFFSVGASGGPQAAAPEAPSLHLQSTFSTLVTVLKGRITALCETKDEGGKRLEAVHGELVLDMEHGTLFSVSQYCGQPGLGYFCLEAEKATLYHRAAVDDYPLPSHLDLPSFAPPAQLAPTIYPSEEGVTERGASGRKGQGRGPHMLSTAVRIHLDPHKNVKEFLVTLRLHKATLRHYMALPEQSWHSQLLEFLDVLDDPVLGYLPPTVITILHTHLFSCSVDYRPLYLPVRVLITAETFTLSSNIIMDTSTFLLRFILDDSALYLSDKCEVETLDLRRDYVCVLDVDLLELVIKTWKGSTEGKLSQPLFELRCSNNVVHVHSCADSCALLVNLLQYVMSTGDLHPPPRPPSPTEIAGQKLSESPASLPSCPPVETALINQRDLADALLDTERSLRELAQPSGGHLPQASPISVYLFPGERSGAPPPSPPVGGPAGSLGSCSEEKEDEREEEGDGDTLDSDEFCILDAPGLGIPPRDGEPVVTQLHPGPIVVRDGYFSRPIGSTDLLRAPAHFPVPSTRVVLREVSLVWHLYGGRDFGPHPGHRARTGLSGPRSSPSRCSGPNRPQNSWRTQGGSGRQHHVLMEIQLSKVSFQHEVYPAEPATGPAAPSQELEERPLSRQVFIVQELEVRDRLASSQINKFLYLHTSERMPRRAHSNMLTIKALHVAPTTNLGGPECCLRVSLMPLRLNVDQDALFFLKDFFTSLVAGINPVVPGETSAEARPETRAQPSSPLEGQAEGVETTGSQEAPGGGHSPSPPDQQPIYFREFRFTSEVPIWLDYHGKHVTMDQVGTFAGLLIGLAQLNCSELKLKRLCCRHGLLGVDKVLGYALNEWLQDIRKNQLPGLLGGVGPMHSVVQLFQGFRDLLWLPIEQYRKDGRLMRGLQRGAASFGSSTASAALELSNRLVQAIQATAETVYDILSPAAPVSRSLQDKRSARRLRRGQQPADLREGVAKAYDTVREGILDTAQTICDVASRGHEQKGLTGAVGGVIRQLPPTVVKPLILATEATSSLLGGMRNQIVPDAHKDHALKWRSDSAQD
UniProt O75608: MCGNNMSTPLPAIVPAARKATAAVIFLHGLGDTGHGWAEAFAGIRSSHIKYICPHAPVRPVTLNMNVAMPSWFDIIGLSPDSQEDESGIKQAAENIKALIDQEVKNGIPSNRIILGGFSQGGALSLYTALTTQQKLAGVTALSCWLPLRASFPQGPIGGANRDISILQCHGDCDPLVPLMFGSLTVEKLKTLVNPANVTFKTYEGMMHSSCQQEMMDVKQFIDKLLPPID
UniProt O95372: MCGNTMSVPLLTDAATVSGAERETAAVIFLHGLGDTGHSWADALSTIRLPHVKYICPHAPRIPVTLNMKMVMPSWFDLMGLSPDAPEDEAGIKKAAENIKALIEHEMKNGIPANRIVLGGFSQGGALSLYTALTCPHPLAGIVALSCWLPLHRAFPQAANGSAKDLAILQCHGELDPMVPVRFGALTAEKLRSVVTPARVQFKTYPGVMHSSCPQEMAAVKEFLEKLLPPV

Target: HA-ATG2A (human) (UniProt Q2TAZ0)
Test: affinity purification with mass spectrometry; HEK293T cells stably expressing HA-vec or HA-ATG2A, anti-HA affinity magnetic beads, on-bead digestion, HPLC-MS/MS

Row | Substance | binding
1 | acyl-protein thioesterase 1 (endogenous) (from UniProt O75608 1-230) (enzyme) | binds
2 | acyl-protein thioesterase 2 (endogenous) (from UniProt O95372 1-231) (enzyme) | binds
